# Record: PubChem BioAssay AID504793 (Drosophila RNAi Screening Center, 2011)
# Aim: 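Genes required for cells to halt at G2/M after double-strand DNA breaks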 (primary screen)
# System: Drosophila S2R+ cells
# Reagent: long dsRNA against Drosophila genes, about 0.25 µg dsRNA per well
# Time to read-out: 4 days of dsRNA, then 4 hours of drug before read-out
# Conditions: doxorubicin 0.5 µM for 4 hours to cause double-strand breaks, in cells also given a low, harmless dose of dsRNA against nbs to sensitise the assay
# Measured: 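Mitotic index as the number of phospho-histone H3-positive cells in each well following doxorubicin, given as raw counts without normalisation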
# Reading the numbers: mitotic cells: higher = more cells in mitosis, weaker G2 arrest
# Hit rule: 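Genes are called active only when high mitotic counts were reproduced with independent dsRNAs and mitosis was checked for delay without damage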
# Calls: active = confirmed in follow-up tests; inactive = not confirmed
# In all, the deposit lists about 23,000 reagents; below is a random part of those with a known target gene and a result. Of all reagents, 62 (0.27%) got an active call. 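Calls come from follow-up tests whose scores are not deposited, so confirmed genes may have low counts here; counts are not normalised per plate.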 The raw values are shown without normalisation. A plus sign joins genes that one reagent is predicted to hit.
Gene,dsRNA,"mitotic cells, replicate 1",call
wol,DRSC03077,6,inactive
wol,DRSC27227,10,inactive
CG31253 + CG31131,DRSC13839,16,inactive
Ubc87F,DRSC16513,2,inactive
Ubc87F,DRSC29083,3,inactive
CG11563,DRSC14327,12,inactive
Cyt-b5-r,DRSC03308,2,inactive
Cad96Ca,DRSC14220,5,inactive
Cad96Ca,DRSC16693,9,inactive
CG12419 (retired record),DRSC14513,5,inactive
CG12419 (retired record),DRSC23888,2,inactive
Npc1b,DRSC20488,4,inactive
Tpc2,DRSC04322,2,inactive
Tat,DRSC19602,12,inactive
whd,DRSC07351,4,inactive
Dip-B,DRSC16466,4,inactive
Dip-B,DRSC25975,11,inactive
DUBAI,DRSC07281,4,inactive
PIG-X,DRSC22721,11,inactive
CG31820,DRSC21318,15,inactive
CG31820,DRSC29683,6,inactive
CG12231,DRSC19445,7,inactive
D12,DRSC03311,2,inactive
CG8399,DRSC07163,1,inactive
Taf13,DRSC02106,12,inactive
CG10920,DRSC17765,27,inactive

Sorted by “mitotic cells, replicate 1” (high to low): 8 of the entries above.
Gene,dsRNA,"mitotic cells, replicate 1",call
CG31820,DRSC21318,15,inactive
Dip-B,DRSC25975,11,inactive
PIG-X,DRSC22721,11,inactive
CG12231,DRSC19445,7,inactive
CG31820,DRSC29683,6,inactive
DUBAI,DRSC07281,4,inactive
D12,DRSC03311,2,inactive
CG8399,DRSC07163,1,inactive

Next entries follow:
Gene,dsRNA,"mitotic cells, replicate 1",call
Sr-CI,DRSC00790,11,inactive
Sr-CI,DRSC23942,7,inactive
CG33543,DRSC00384,8,inactive
CG33543,DRSC00385,6,inactive
CG31122,DRSC16286,5,inactive
CG31122,DRSC23448,11,inactive
O-fut2,DRSC18608,11,inactive
CG32271,DRSC08198,10,inactive
CG32271,DRSC27093,3,inactive
CG5727,DRSC02882,,inactive
CG5727,DRSC29537,6,inactive
Drsl4,DRSC08034,12,inactive
Drsl4,DRSC27159,11,inactive
sphinx2,DRSC22188,2,inactive
sphinx2,DRSC24771,6,inactive
Or71a,DRSC11244,5,inactive
l(2)k05911,DRSC02523,9,inactive
CG32797,DRSC25152,14,inactive
GramD1B,DRSC00426,5,inactive
GramD1B,DRSC00591,5,inactive
GramD1B,DRSC23885,9,inactive
GramD1B,DRSC28705,5,inactive
CG15225,DRSC23269,13,inactive
CG15225,DRSC29370,4,inactive
CG43861,DRSC02308,8,inactive
CG32625,DRSC18994,6,inactive
CG32625,DRSC28080,10,inactive
Cpr49Ae,DRSC07201,1,inactive
Cpr49Ae,DRSC27662,11,inactive
Hs6st,DRSC14348,13,inactive
Hs6st,DRSC15182,10,inactive
Hs6st,DRSC15581,17,inactive
Hs6st,DRSC21732,13,inactive
Atpalpha,DRSC14119,14,inactive
Atpalpha,DRSC39134,5,inactive
CG5567,DRSC10517,6,inactive
CG7632,DRSC11842,8,inactive
kirre,DRSC18785,14,inactive
kirre,DRSC24733,2,inactive
CG31089,DRSC15934,9,inactive
CG7872,DRSC20062,7,inactive
Or85f,DRSC16769,13,inactive
PDCD-5,DRSC09955,4,inactive
CG10474,DRSC05993,2,inactive
tsl,DRSC17090,13,inactive
CG12502,DRSC23247,6,inactive
scpr-A + scpr-C,DRSC15737,5,inactive
CG14658,DRSC12244,2,inactive
CG32846,DRSC08012,12,inactive
CG32846,DRSC27074,6,inactive
